Measurements reported in PubChem BioAssay AID1159584 (Peter MacCallum Cancer Centre, 2016).
This is one part, drawn at random, of about 18,000 reagents tested. Further read-outs or replicates are left out here. Not stated in the record: the amount of reagent, the time to read-out.

- Screen: 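Genes whose loss is lethal only together with E-cadherin loss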 (primary screen)
- System: human MCF10A breast epithelial cells, parental and CDH1-null
- Reagent: siRNA against human genes
- Detection: 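Cell viability by CellTiter-Glo ATP luminescence, each line scaled to the mean of mock wells across plates, then CDH1-null over parental ratio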
- Reading the numbers: CDH1-null / parental viability ratio: higher = CDH1-null cells survive relatively better than parental; CDH1-null viability vs mock: higher = more viable CDH1-null cells
- Units: CDH1-null viability vs mock in fraction of mock

HADHB | CDH1-null / parental viability ratio = 0.96; CDH1-null viability vs mock = 0.86
PCDH1 | CDH1-null / parental viability ratio = 1.14; CDH1-null viability vs mock = 0.92
ZP1 | CDH1-null / parental viability ratio = 1.11; CDH1-null viability vs mock = 0.94
NLGN3 | CDH1-null / parental viability ratio = 1; CDH1-null viability vs mock = 1.04
C2CD5 | CDH1-null / parental viability ratio = 1.23; CDH1-null viability vs mock = 0.81
SERPINC1 | CDH1-null / parental viability ratio = 1.13; CDH1-null viability vs mock = 1.02
S100A7P3 | CDH1-null / parental viability ratio = 0.98; CDH1-null viability vs mock = 0.62
ZNF155 | CDH1-null / parental viability ratio = 1.2; CDH1-null viability vs mock = 0.96
VAV1 | CDH1-null / parental viability ratio = 0.65; CDH1-null viability vs mock = 0.39
CDADC1 | CDH1-null / parental viability ratio = 0.81; CDH1-null viability vs mock = 0.68
RFNG | CDH1-null / parental viability ratio = 1.03; CDH1-null viability vs mock = 1.07
SOX14 | CDH1-null / parental viability ratio = 0.97; CDH1-null viability vs mock = 0.66
SH3YL1 | CDH1-null / parental viability ratio = 0.88; CDH1-null viability vs mock = 0.74
ZFP69B | CDH1-null / parental viability ratio = 1.06; CDH1-null viability vs mock = 0.57
